PubChem BioAssay AID1159578 – Peter MacCallum Cancer Centre – 2015

- Assay: 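Genome-wide hunt for genes controlling movement of lymphatic endothelial cells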 (primary screen)
- System: human lymphatic endothelial cells
- Reagents: siRNA pool against human genes, 40 nM
- Duration: 48 h after transfection
- Read-out: 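Cells stained with dye and imaged after a scratch; covered wound area and nuclei counted, duplicates averaged, migration set against mock wells and turned into a robust z-score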
- Reading the numbers: migration robust z-score: higher = faster migration into the scratch; nuclei per well: higher = more cells in the well
- Hit rule: 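Pools averaging fewer than 3300 nuclei are never called; remaining pools count as changed when migration robust z lies outside -2 to 2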
- Meaning of the calls: active = migration changed; inactive = no migration change, or too few cells
The deposit covers about 18,000 reagents; this is an unselected part. In the full data, about 1,030 (5.7%) were called active. 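Inactive calls also include pools with fewer than 3300 nuclei, whose migration was not assessed.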 Raw values vary from plate to plate and are shown uncorrected. Reagents against one gene are numbered here. Further read-outs or replicates are left out here.

DUSP5 (dual specificity phosphatase 5) — migration robust z-score: -0.86; migration class with cell-count check: migration z between -2 and 2; enough cells; nuclei per well, duplicate mean: 6051; activity call: inactive
ARMCX2 (armadillo repeat containing X-linked 2) — migration robust z-score: -0.97; migration class with cell-count check: migration z between -2 and 2; enough cells; nuclei per well, duplicate mean: 7243; activity call: inactive
NTSR2 (neurotensin receptor 2) — migration robust z-score: -0.42; migration class with cell-count check: migration z between -2 and 2; enough cells; nuclei per well, duplicate mean: 4953; activity call: inactive
EPHX2 (epoxide hydrolase 2) — migration robust z-score: -0.77; migration class with cell-count check: migration z between -2 and 2; enough cells; nuclei per well, duplicate mean: 6623; activity call: inactive
KCTD12 (potassium channel tetramerization domain containing 12) — migration robust z-score: -0.03; migration class with cell-count check: migration z between -2 and 2; enough cells; nuclei per well, duplicate mean: 5132; activity call: inactive
UGT2B11 (UDP glucuronosyltransferase family 2 member B11) — migration robust z-score: 0.32; migration class with cell-count check: migration z between -2 and 2; enough cells; nuclei per well, duplicate mean: 5562; activity call: inactive
IFNA14 (interferon alpha 14) — migration robust z-score: -1.66; migration class with cell-count check: migration z between -2 and 2; enough cells; nuclei per well, duplicate mean: 5945; activity call: inactive
WDR26 (WD repeat domain 26) — migration robust z-score: 0.49; migration class with cell-count check: migration z between -2 and 2; enough cells; nuclei per well, duplicate mean: 7428; activity call: inactive
COQ4 (coenzyme Q4) — migration robust z-score: 0.41; migration class with cell-count check: migration z between -2 and 2; enough cells; nuclei per well, duplicate mean: 4960; activity call: inactive
DNAAF19 (dynein axonemal assembly factor 19) — migration robust z-score: 2.64; migration class with cell-count check: migration z above 2; enough cells; nuclei per well, duplicate mean: 4841; activity call: active
TBR1 (T-box brain transcription factor 1) — migration robust z-score: 0.78; migration class with cell-count check: migration z between -2 and 2; enough cells; nuclei per well, duplicate mean: 4398; activity call: inactive
P2RY13 (purinergic receptor P2Y13) — migration robust z-score: 0.57; migration class with cell-count check: migration z between -2 and 2; enough cells; nuclei per well, duplicate mean: 5989; activity call: inactive
LONRF2 (LON peptidase N-terminal domain and ring finger 2) — migration robust z-score: -1.98; migration class with cell-count check: migration z between -2 and 2; enough cells; nuclei per well, duplicate mean: 5555; activity call: inactive
NPR3 (natriuretic peptide receptor 3) #1 — migration robust z-score: 0.98; migration class with cell-count check: migration z between -2 and 2; enough cells; nuclei per well, duplicate mean: 6164; activity call: inactive
NPR3 (natriuretic peptide receptor 3) #2 — migration robust z-score: 0.3; migration class with cell-count check: migration z between -2 and 2; enough cells; nuclei per well, duplicate mean: 5436; activity call: inactive
SH3GL1 (SH3 domain containing GRB2 like 1, endophilin A2) — migration robust z-score: 2.62; migration class with cell-count check: migration z above 2; enough cells; nuclei per well, duplicate mean: 5830; activity call: active
LCN6 (lipocalin 6) — migration robust z-score: -0.37; migration class with cell-count check: migration z between -2 and 2; enough cells; nuclei per well, duplicate mean: 6205; activity call: inactive
GLT8D2 (glycosyltransferase 8 domain containing 2) — migration robust z-score: 0.03; migration class with cell-count check: migration z between -2 and 2; enough cells; nuclei per well, duplicate mean: 6774; activity call: inactive
RBSN (rabenosyn, RAB effector) — migration robust z-score: 0.31; migration class with cell-count check: migration z between -2 and 2; enough cells; nuclei per well, duplicate mean: 5956; activity call: inactive
CFAP119 (cilia and flagella associated protein 119) — migration robust z-score: 0.24; migration class with cell-count check: migration z between -2 and 2; enough cells; nuclei per well, duplicate mean: 8333; activity call: inactive
PRAMEF12 (PRAME family member 12) — migration robust z-score: 1.15; migration class with cell-count check: migration z between -2 and 2; enough cells; nuclei per well, duplicate mean: 5529; activity call: inactive
BTD (biotinidase) — migration robust z-score: -0.08; migration class with cell-count check: migration z between -2 and 2; enough cells; nuclei per well, duplicate mean: 6004; activity call: inactive
CYP2C9 (cytochrome P450 family 2 subfamily C member 9) — migration robust z-score: 1.04; migration class with cell-count check: migration z between -2 and 2; enough cells; nuclei per well, duplicate mean: 5854; activity call: inactive
AP1S2 (adaptor related protein complex 1 subunit sigma 2) — migration robust z-score: -0.05; migration class with cell-count check: migration z between -2 and 2; enough cells; nuclei per well, duplicate mean: 6010; activity call: inactive
EDA (ectodysplasin A) — migration robust z-score: 0.65; migration class with cell-count check: migration z between -2 and 2; enough cells; nuclei per well, duplicate mean: 6637; activity call: inactive
TENT5D (terminal nucleotidyltransferase 5D) — migration robust z-score: 2.76; migration class with cell-count check: migration z above 2; enough cells; nuclei per well, duplicate mean: 5726; activity call: active
VWCE (von Willebrand factor C and EGF domains) — migration robust z-score: -1.36; migration class with cell-count check: migration z between -2 and 2; enough cells; nuclei per well, duplicate mean: 4730; activity call: inactive

2 entries from above, showing only “migration robust z-score”:
NPR3 (natriuretic peptide receptor 3) #1 = 0.98
NPR3 (natriuretic peptide receptor 3) #2 = 0.3
